Paper PMC9144812

Molecular target: MLD1F-CLUC (rice (Oryza sativa japonica cv. Aichiasahi))
Test: split reporter; firefly luciferase complementation imaging (LCI) in N. benthamiana leaves, LUC activity imaged 48 h post infiltration

B1: NLUC-SERK1 (receptor, UniProt Q6Z4U4 26-624)
chain: NMEGDALHSLRTNLVDPNNVLQSWDPTLVNPCTWFHVTCNNDNSVIRVDLGNAALSGTLVPQLGQLKNLQYLELYSNNISGTIPSELGNLTNLVSLDLYLNNFTGPIPDSLGNLLKLRFLRLNNNSLSGSIPKSLTAITALQVLDLSNNNLSGEVPSTGSFSLFTPISFANNPSLCGPGTTKPCPGAPPFSPPPPYNPPTPVQSPGSSSSTGAIAGGVAAGAALLFAIPAIGFAWYRRRKPQEHFFDVPAEEDPEVHLGQLKRFSLRELQVATDTFSNKNILGRGGFGKVYKGRLADGSLVAVKRLKEERTPGGELQFQTEVEMISMAVHRNLLRLRGFCMTPTERLLVYPYMANGSVASRLRERPPSEPPLDWRTRRRIALGSARGLSYLHDHCDPKIIHRDVKAANILLDEDFEAVVGDFGLAKLMDYKDTHVTTAVRGTIGHIAPEYLSTGKSSEKTDVFGYGIMLLELITGQRAFDLARLANDDDVMLLDWVKGLLKEKRLEMLVDPDLQSNYIDVEVESLIQVALLCTQGSPTERPKMAEVVRMLEGDGLAERWEEWQKIEVVRQEVELGPHRNSEWIVDSTDNLHAVELSGPR
- binding: binds

Results are given in words; binding and its absence hold for the method and conditions named. Binding seen in cells or lysates may run through a third protein. Binding can be weak; no strength is given. Tags and fused reporters may be left off the sequences shown.
